PubChem BioAssay AID662 (National Center for Advancing Translational Sciences (NCATS), 2007)
This is one part of the list. These are further read-outs of the screen, such as a control signal, another cell line or another target. No call is given for them. Most of these compounds were active or inconclusive in the main read-out, so they are no random draw. Words in brackets tell the shape of the fitted curve; partial curves, single points and poor fits give uncertain potencies.

experiment: Cell signaling CRE-BLA (Fsk stim); settings: CHO CRE-bla reporter (cAMP response element driving beta-lactamase), forskolin EC10, beta-lactamase ratio; measured here: 460 nm blue channel
In short: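 AC50 values, positive or negative, reflect shifts in EC10 NKH 477-induced CRE-bla reporter activity in CHO cells. Incubation lasted 3 h at 37 °C before CCF4 substrate (2 h, room temperature) and ratiometric 460/530 nm reading.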

Question: With `CCN(CC)C(=O)c1sc2nc(-c3ccncc3)[nH]c(=O)c2c1C` as the molecule, how does the AC50 read?
Answer: 10 µM [rising, single point]

Question: With `COc1ccc(NC(=O)c2cc(CN3C(=O)c4ccccc4C3=O)ccc2OC)cn1` as the molecule, how does the AC50 read?
Answer: 12.6 µM [rising, partial curve]

Question: With `Nc1ncnc2c1ncn2C1CCCC1` as the molecule, how does the AC50 read?
Answer: 25.1 µM [rising, single point]

Question: Which AC50 does the source give for `Cc1nonc1NC(=O)OC1CCCCC1` here?
Answer: 0.0794 µM [rising, single point]

Question: For `COc1ccc(Br)cc1C1NC(=O)c2c(sc3c2CCN(C)C3)N1` (centres undefined), which AC50 is on record?
Answer: 10 µM [rising, partial curve]

Question: Which AC50 does the source give for `c1ccc(Cc2nc(-c3ccccn3)no2)cc1` here?
Answer: 0.00398 µM [falling, full curve, poor fit]

Question: Which AC50 does the source give for `Cc1cc(-c2nnc3n2N=C(C(C)(C)C)CS3)n[nH]1` here?
Answer: 3.16 µM [rising, partial curve]

Question: Which AC50 does the source give for `Fc1ccc(Nc2nc(Oc3ccc4c(c3)OCO4)nc(N3CCOCC3)n2)c(F)c1` here?
Answer: 10 µM [rising, partial curve]

Question: Which AC50 does the source give for `O=C(Nc1ccc2c(c1)oc1ccc(S(=O)(=O)N3CCCC3)cc12)C1CC1` here?
Answer: 25.1 µM [falling, single point]

Question: With `COCCn1c(N)c(NCc2ccccc2)c(=O)n(CC(=O)Nc2cc(C)ccc2C)c1=O` as the molecule, how does the AC50 read?
Answer: 5.01 µM [falling, single point]

Question: For `CN1C(=S)SC(N(O)C(=O)NC2CCCCC2)C1(C)C` (centres undefined), which AC50 is on record?
Answer: 0.316 µM [rising, full curve, poor fit]

Question: For `COc1ccc(CNC(=O)c2cc3c(=O)n4ccccc4nc3n(Cc3ccco3)c2=N)cc1`, which AC50 is on record?
Answer: 12.6 µM [rising, single point]

Question: For `Cn1c(C(=O)NCCC2=CCCCC2)cc2c(=O)n3ccccc3nc21`, which AC50 is on record?
Answer: 0.316 µM [rising, full curve]

Question: Which AC50 does the source give for `N#Cc1c2c(c(NCCN3CCOCC3)n3c1nc1ccccc13)CCCC2` here?
Answer: 15.8 µM [rising, partial curve]

Question: With `Cc1ccc2c(c1)N(Cc1ccncc1)C(=O)C(C)O2` (centres undefined) as the molecule, how does the AC50 read?
Answer: 12.6 µM [rising, single point]

Question: Which AC50 does the source give for `CCOC(=O)N1CCC(NC(=O)CCc2c(C)nc3nc(C)nn3c2C)CC1` here?
Answer: 0.126 µM [falling, full curve, poor fit]

Question: With `[N-]=[N+]=CC(=O)CNC(=O)[C@@H](Cc1ccccc1)N1C(=O)c2ccccc2C1=O` as the molecule, how does the AC50 read?
Answer: 5.01 µM [rising, single point]

Question: With `CN(C)c1ncnc2ccc(-c3cccnc3)cc12` as the molecule, how does the AC50 read?
Answer: 3.16 µM [rising, full curve]

Question: With `CCC/C=C(\CCC)C(NS(=O)(=O)CC12CCC(CC1=O)C2(C)C)c1ccc(C(=O)OC)cc1` (centres undefined) as the molecule, how does the AC50 read?
Answer: 2.51 µM [rising, partial curve]

Question: For `O=S(=O)(Nc1cccnc1)c1ccc(C2CCCCC2)cc1`, which AC50 is on record?
Answer: 15.8 µM [rising, partial curve, poor fit]

Question: With `COc1ccc(-c2nnc3ccc(SC)nn23)cc1` as the molecule, how does the AC50 read?
Answer: 20 µM [rising, single point]

Question: With `O=S(=O)(NCCOCC(F)(F)C(F)F)c1ccc2oc3ccccc3c2c1` as the molecule, how does the AC50 read?
Answer: 12.6 µM [falling, single point]

Question: With `CCCCCCCC[N+](CCCCCCCC)(CCCCCCCC)CCCCCCCC` as the molecule, how does the AC50 read?
Answer: 10 µM [falling, partial curve]

Question: Which AC50 does the source give for `CCN=C1SC(CC(=O)Nc2ccc(C)cc2)C(=O)N1CC` (centres undefined) here?
Answer: 5.01 µM [falling, partial curve]

Question: Which AC50 does the source give for `CC1(C)CCC[C@@]2(C)[C@@H]1CC[C@]1(C)OC(=O)C[C@@H]21` here?
Answer: 15.8 µM [rising, partial curve, poor fit]

Question: For `CCOc1ccc(C(=O)N2CCN(C(=O)c3ccco3)CC2)cc1OCC`, which AC50 is on record?
Answer: 25.1 µM [rising, single point]

Question: Which AC50 does the source give for `Cn1c(=O)[nH]c(=O)c2c1nc(CN1CCN(c3cccc(Cl)c3)CC1)n2CCc1ccccc1` here?
Answer: 10 µM [rising, partial curve]

Question: Which AC50 does the source give for `O=C1OC(=O)[C@@H]2[C@@H]1[C@@H]1CC[C@H]2O1` here?
Answer: 2.51 µM [rising, full curve]

Question: With `CCN(CC)C(=O)Oc1ccc2c(=O)c(-c3ccccc3)coc2c1` as the molecule, how does the AC50 read?
Answer: 3.98 µM [falling, partial curve]

Question: Which AC50 does the source give for `CCCc1cc(=O)oc2cc(C)cc(OC(=O)c3ccco3)c12` here?
Answer: 0.0631 µM [falling, partial curve]

Question: Which AC50 does the source give for `Cc1ccc(NC(=O)N(Cc2ccc3c(c2)OCO3)Cc2cc3cc4c(cc3[nH]c2=O)OCCO4)cc1` here?
Answer: 3.16 µM [rising, partial curve]

Question: Which AC50 does the source give for `CC(=O)c1n[nH]nc1NC(=O)c1ccccc1` here?
Answer: 3.16 µM [falling, full curve]

Question: For `CN1C(=O)N(C)C2(c3ccccc3)N(C)C(=O)NC12c1ccccc1` (centres undefined), which AC50 is on record?
Answer: 25.1 µM [rising, single point]

Question: Which AC50 does the source give for `CCOc1ccc2nc(N3CCCCCC3)sc2c1` here?
Answer: 7.94 µM [rising, partial curve]

Question: Which AC50 does the source give for `O=C(Nc1nccs1)c1cc(N2CCOCC2)nc2ccccc12` here?
Answer: 3.98 µM [falling, partial curve]

Question: With `COC(=O)[C@H](C)NC(=O)Nc1ccccc1C(F)(F)F` as the molecule, how does the AC50 read?
Answer: 7.94 µM [falling, partial curve, poor fit]

Question: For `COc1ncc2nc(CCc3ccccc3)c(=O)n(C3CC3)c2n1`, which AC50 is on record?
Answer: 25.1 µM [rising, partial curve]

Question: With `COC(=O)COc1ccc(S(=O)(=O)NCc2cccnc2)cc1C` as the molecule, how does the AC50 read?
Answer: 1.58 µM [falling, full curve, poor fit]

Question: With `O=C(CCN1CCN(C/C=C/c2ccccc2)CC1)Nc1ccccc1` as the molecule, how does the AC50 read?
Answer: 0.316 µM [rising, full curve]

Question: For `COc1ccc(-n2c(SC3CCOC3=O)nc3ccccc3c2=O)cc1OC` (centres undefined), which AC50 is on record?
Answer: 12.6 µM [rising, single point]

Question: With `Cc1cc(OC2CCCCC2)nc(-c2ccccc2O)n1` as the molecule, how does the AC50 read?
Answer: 0.398 µM [rising, full curve]

Question: Which AC50 does the source give for `Cc1ccc(-n2c(SCC(=O)Nc3cc(C)on3)nc3c(c2=O)SC(C)C3)cc1` (centres undefined) here?
Answer: 20 µM [rising, single point]

Question: For `C=CCNc1nc(N(c2ccccc2)c2ccccc2)nc(-n2ccnc2)n1`, which AC50 is on record?
Answer: 1.26 µM [rising, full curve]

Question: Which AC50 does the source give for `COc1ccccc1N1CCN(C(=O)C(NS(=O)(=O)c2cccs2)c2ccccc2)CC1` (centres undefined) here?
Answer: 0.158 µM [falling, full curve]
